Measured values published in patent publication US20250109210A1 (ABSCI, published 2025).
These are yes or no findings as the source states them, for the method shown. Some binding calls cover weakened binding; strength is not graded here.

By UniProt entry, the sequences of proteins in these tests, tags left out. Where a name states a change or a piece, a line headed by the entry shows the natural chain unless it says otherwise. Chains listed by the source or under a name are the forms on record and can include a tag or linker. Residues count along the entry.
Cyno TL1A (G7PRK8, form named): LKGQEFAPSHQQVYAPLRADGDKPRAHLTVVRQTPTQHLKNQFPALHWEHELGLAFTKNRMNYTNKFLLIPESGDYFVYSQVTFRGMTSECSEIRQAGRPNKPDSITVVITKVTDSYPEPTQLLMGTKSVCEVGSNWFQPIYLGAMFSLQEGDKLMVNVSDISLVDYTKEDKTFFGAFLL
UniProt O95150, residues 72-251: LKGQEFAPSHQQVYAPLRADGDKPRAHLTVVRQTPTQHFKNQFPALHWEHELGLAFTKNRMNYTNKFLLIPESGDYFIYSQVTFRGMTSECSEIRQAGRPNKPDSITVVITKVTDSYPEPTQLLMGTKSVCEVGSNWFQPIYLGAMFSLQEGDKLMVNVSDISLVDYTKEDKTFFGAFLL

How the values were obtained:
Cyno TL1A (cyno) [1] = biological target: Cyno TL1A (cyno) (UniProt G7PRK8); assay: SPR
Cyno TL1A (cyno) [2] = biological target: Cyno TL1A (cyno) (UniProt G7PRK8); assay: SPR, Fab format
Human TL1A (human) = Human TL1A (human) (UniProt O95150); assay: SPR, Fab format

Measured: binding

B1: Antibody 15 of Sequence Table 1, Fab format (Fab, V domains shown)
VH: QVQLQESGPGLVRPSQTLSLTCTVSGFDIQDTYMHWVRQRPGRGLEWMGRIEPAGGHTKYNPSLKSRVTITRDTSKNQVSLRLSSVTAADTAVYYCVRSGGLPDAWGQGSLVTVSS
VL: DIQMTQSPSSLSASVGDRVTITCRASQGIYYMYWYQQKPGKAPKLLIYGASNLASGVPSRFSGSGSGTDFTFTISSLQPEDIATYYCQQWEGNPRTFGQGTKVEIK
binds: all assays above

B2: Antibody 18 of Sequence Table 1, Fab format (Fab, V domains shown)
VH: QVQLQESGPGLVRPSQTLSLTCTVSGFDMGDTYMHWVRQRPGRGLEWMGRIEPAGGHTKYNPSLKSRVTITRDTSKNQVSLRLSSVTAADTAVYYCVRSGGMPDVWGQGSLVTVSS
VL: DIQMTQSPSSLSASVGDRVTITCRASSSVSYMYWYQQKPGKAPKLLIYYASNLASGVPSRFSGSGSGTDFTFTISSLQPEDIATYYCQQWEGNPRTFGQGTKVEIK
binds: all assays above

B3: Antibody 19 of Sequence Table 1, Fab format (Fab, V domains shown)
VH: QVQLQESGPGLVRPSQTLSLTCTVSGFDITDTYMHWVRQRPGRGLEWMGRIEPAGGHTKYNPSLKSRVTITRDTSKNQVSLRLSSVTAADTAVYYCVRSGGLPDVWGQGSLVTVSS
VL: DIQMTQSPSSLSASVGDRVTITCRASQGVEYMYWYQQKPGKAPKLLIYYASNLASGVPSRFSGSGSGTDFTFTISSLQPEDIATYYCQQWEGNPRTFGQGTKVEIK
binds: all assays above

B4: Antibody 16 of Sequence Table 1, Fab format (Fab, V domains shown)
VH: QVQLQESGPGLVRPSQTLSLTCTVSGFDMQSTYMHWVRQRPGRGLEWMGRIEPAGGHTKYNPSLKSRVTITRDTSKNQVSLRLSSVTAADTAVYYCVRSGGLPDVWGQGSLVTVSS
VL: DIQMTQSPSSLSASVGDRVTITCRASQGVEYMYWYQQKPGKAPKLLIYGASNLASGVPSRFSGSGSGTDFTFTISSLQPEDIATYYCQQWEGNPRTFGQGTKVEIK
binds: all assays above

B5: Antibody 17 of Sequence Table 1, Fab format (Fab, V domains shown)
VH: QVQLQESGPGLVRPSQTLSLTCTVSGFDMGDTYMHWVRQRPGRGLEWMGRIEPAAGHTKYNPSLKSRVTITRDTSKNQVSLRLSSVTAADTAVYYCVRSGGLPDVWGQGSLVTVSS
VL: DIQMTQSPSSLSASVGDRVTITCRASQGVEYMYWYQQKPGKAPKLLIYGASNLASGVPSRFSGSGSGTDFTFTISSLQPEDIATYYCQQWEGNPRTFGQGTKVEIK
binds: all assays above

B6: Antibody 20 of Sequence Table 1, Fab format (Fab, V domains shown)
VH: QVQLQESGPGLVRPSQTLSLTCTVSGFDIQDTYMHWVRQRPGRGLEWMGRIEPASGHTKYNPSLKSRVTITRDTSKNQVSLRLSSVTAADTAVYYCARSGGMPDMWGQGSLVTVSS
VL: DIQMTQSPSSLSASVGDRVTITCRASQGVMYMYWYQQKPGKAPKLLIYGASNLASGVPSRFSGSGSGTDFTFTISSLQPEDIATYYCQQWEGNPRTFGQGTKVEIK
binds: all assays above
